For the data set, the system named is GST-GhWRKY40a. The experiment in a line: EMSA. To be noted: reduced by unlabeled same-sequence competitor; Beyotime Chemiluminescent EMSA Kit; pH and temperature not stated; recombinant protein; protein details: N-terminal GST (pGEX-4T-2); label: biotin. A general note: Mobility shift assays separate free from complexed probe on a gel.

Construct, isoform or probe ends are uncertain for at least one entry.

In the case of “AATATTCTTTAATGGACTATTGACTTTATTCCGAACTTATCCAAAAGGTT (double strand) [ProGhERF1b EMSA probe]”, the binding result was “binds”.
The result for “GGCTTAGTGACTAAAATGTTACAACACGATAACGTAAGTGACTAAAACGT (double strand) [ProGhABF2 EMSA probe]” reads “binds”.

(Values after article PMC11304259.)
